The record followed here is PMC4525203.

T1: C-terminally 3xFlag-tagged Esrrb (oestrogen-related receptor beta) (mouse) (UniProt Q61539)
T1 sequence: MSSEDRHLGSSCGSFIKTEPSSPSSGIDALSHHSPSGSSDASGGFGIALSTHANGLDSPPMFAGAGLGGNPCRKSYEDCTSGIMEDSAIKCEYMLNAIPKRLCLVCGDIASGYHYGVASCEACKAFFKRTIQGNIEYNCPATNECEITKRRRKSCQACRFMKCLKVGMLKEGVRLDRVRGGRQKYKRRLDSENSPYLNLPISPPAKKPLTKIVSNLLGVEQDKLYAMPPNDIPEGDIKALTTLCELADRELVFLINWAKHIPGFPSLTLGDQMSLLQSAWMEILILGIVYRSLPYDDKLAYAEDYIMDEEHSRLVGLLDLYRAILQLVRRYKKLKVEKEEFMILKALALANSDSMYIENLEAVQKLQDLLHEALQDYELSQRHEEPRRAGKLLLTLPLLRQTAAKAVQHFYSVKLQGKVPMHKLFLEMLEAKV

B1: Zinc-finger protein 655 (protein, UniProt Q9CZP3 1-541)
chain: MEEVTSQEAAESPRGHFQPLENQSECLSPELRFLQDTDMEQGFSGGFPISKPDGISEREQDLQVFDLESKNREVIRGDCSDGETREENKLLIPKRKISEEVHSYKVRVGKFKQDIAQVPETREVYKSEDRLERLQEILRKFLFLEREFRQITISKKTFSSEKNTEPEKSFSLDSTLDTDQRVLRIQTTDDSKYDMNFNQNPAVGEQEPINLTENFQSTDYKESLMDLSHLNKWESMPTTDRSYKCDTCGKTFHQASALTRHQRIHTREKPYKCKECEKSFSQSSSLSRHKRIHTREKSYKCEASDKSCDAPDKSCSQSSDVLQHKKGHAKAKSYKCGTCERVFSRSVHLTQHQRTHKDMSCKCTVCGSDFCHTSYLVEHQRLHHQEKSYEYDECGLAYVKQQGIRFQEKPYSCNECGKDFRLNSHLIQHQRIHTGEKLHECNECGKSFSQTSCLIQHHKMHRKEKSYEYNNYEESFSHSSDLTLQQEVPIRERVFDCDAWEENFSQRAHLIQHERVHTKEKPYECSELGETFSQVQASFNM
B2: Zinc-finger protein 143 (protein, UniProt O70230 1-638)
chain: MLLAQINRDSQGMTEFPGGGMEAQHVTLCLTEAVTVADGDNLENMEGVSLQAVTLADGSTAYIQHNSKDGRLIDGQVIQLEDGSAAYVQHVPIPKSTGDSLRLEDGQAVQLEDGTTAFIHHTSKDSYDQSSLQAVQLEDGTTAYIHHAVQVPQSDTILAIQADGTVAGLHTGDATIDPDTISALEQYAAKVSIDGSDGVTSTGMIGENEQEKKMQIVLQGHATRVTPKSQQSGEKAFRCKYDGCGKLYTTAHHLKVHERSHTGDRPYQCEHSGCGKAFATGYGLKSHFRTHTGEKPYRCSEDNCTKSFKTSGDLQKHIRTHTGERPFKCPIEGCGRSFTTSNIRKVHIRTHTGERPYYCTEPGCGRAFASATNYKNHVRIHTGEKPYVCTVPGCDKRFTEYSSLYKHHVVHTHSKPYNCNHCGKTYKQISTLAMHKRTAHNDTEPIEEEQEAFFEPPPGQGDDVLKGSQITYVTGVDGEDIVSTQVATVTQSGLSQQVTLISQDGTQHVNISQADMQAIGNTITMVTQDGTPITVPTHDAVISSAGTHSVAMVTAEGTEGQQVAIVAQDLAAFHTASSEMGHQQHSHHLVTTETRPLTLVATSNGTQIAVQLGEQPSLEEAIRIASRIQQGETPGLDD
B3: Zinc-finger protein 687 (protein, UniProt Q9D2D7 1-1237)
chain: MGDMKTPDFDDLLAAFDIPDIDANEAIHSGPEENEGPGGQGKPEPSVGGDSKDREEAAAAENDPESPAEASDHGLPQPPDTSTVSVIVKNTVCPEQSESLTGDSGEEETKAGGITKEGPVGSCLMQNGFGGPEPSLSENPHSSAHASGNAWKDKAVEGKTCLDLFAHFGSEPGDHPDPLPPEPSQPRGGDMAPPPFSTPFELAPENGSTLLPPASLLPQGALKQESCSPHHSQGLTQRGPGSSPETAGIPASVSPPQVAGVSFKQSPGHQSPPASPVKAPSCKPLKEEDEGTVDKSPPRSPQSPSSGAEAADEDSNDSPTSSSSSRPLKVRIKTIKTSCGNITRTVTRVPSEPDPPAPLAEGAFLAETSFLKLSPVTPTPEGPKVVSVQLGDGTRLKGTVLPVATIQNASTAMLMAASVARKAVVLPGGNATSPKTMTKSVLGLVPQTLPKAEVRTGFSLGGQKVNGASVVMVQPSKSATGPGTAGGSVISRTQSSLVEAFNKILNSKNLLPAYRPNLSPPAEAGLALPPTGYRCLECGDAFSLEKSLARHYDRRSMRIEVTCNHCARRLVFFNKCSLLLHAREHKDKGLVMQCSHLVMRPVALDQMVGQPDITPLLPVAVPPVPGPLALPVLGKGEGAVTSSTITTVATEAPVLPLPTEPPAPPTASVYTCFRCLECKEQCRDKAGMAAHFQQLGPPALGSTSNVCPSCPMMLPNRCSFSAHQRTHKNRAPHVCPECGGNFLQANFQTHLREACLHFSRRVGYRCPSCAVVFGGVNSIKSHIQASHCEVFHKCPICPMAFKSAPSAHAHLYSQHPSFLTQQAKLIYKCAMCDTVFTHKPLLSSHFDQHLLPQRVSVFKCPSCPLLFAQKRTMLEHLKNTHQSGRVGEEAVGKGAGGALLTPKTEPEELAVSQAEAAPATEESSSSSEEELPSSPEPPRPTKRARRGELGNKGIKGGGGGPGGWTCGLCHSWCPERDEYVTHMKKEHGKSVKKFPCRLCERSFCSAPSLRRHVRVNHEGIKRVYPCRYCTEGKRTFSSRLILEKHVQVRHGLPLGTQSSGRGGSLARGSGGRAQGPGRKRRQSSDSCSEEPDSTTPPAKSLRGGPGSGGHGPLRYRSSGSAEQSLVGLRVDGGTQQCLDCGLCFASPGSLSRHRFISHKKRRAGGKASVLGLGDGEEAAPPLRSDPEGGDSPLPAPGDPLTCKVCGKSCDSPLNLKTHFRTHGMAFIRARQGGSGDN
B4: Undifferentiated embryonic cell transcription factor 1 (protein, UniProt Q6J1H4 1-339)
chain: MLLRPRRLPAFSPPSPASPDAELRSAGDVPVTTSDAFATSGGMAEPGSPKAPVSPDSAQRTPWSARETELLLGTLLQPAMWRSLLLDRRQTLPTYRRVSAALARQQVRRTPAQCRRRYKFLKDKLRDSQGQPSGPFDNQIRQLMGLLGDDGPPRVRRRSTGPGRPQRRGRSSLSALAPAPAPVEQEAELPLAAENDEPAPALRFSSSTTKSAGAHRITSSPPLTSTDTLPPEPGHTFESSPTPTPDHDVETPNEPPGLSQGRASSPQVAPQSLNTALLQTLTHLGDISTVLGPLRDQLSTLNQHVEHLRGSFDQTVSLAVGFILGSAASERGILGDLRQ
B5: Transcription factor jun-B (protein, UniProt P09450 1-344)
chain: MCTKMEQPFYHDDSYAAAGYGRSPGSLSLHDYKLLKPTLALNLADPYRGLKGPGARGPGPEGSGAGSYFSGQGSDTGASLKLASTELERLIVPNSNGVITTTPTPPGQYFYPRGGGSGGGTGGGVTEEQEGFADGFVKALDDLHKMNHVTPPNVSLGASGGPQAGPGGVYAGPEPPPVYTNLSSYSPASAPSGGSGTAVGTGSSYPTATISYLPHAPPFAGGHPAQLGLSRGASAFKEEPQTVPEARSRDATPPVSPINMEDQERIKVERKRLRNRLAATKCRKRKLERIARLEDKVKTLKAENAGLSSAAGLLREQVAQLKQKVMTHVSNGCQLLLGVKGHAF
B6: Zinc-finger protein 592 (protein, UniProt Q8BHZ4 1-1262)
chain: MGDMKTPDFDDLLAAFDIPDPTSLDAKEAIQAPSEENESPLKSSGMCIDENVSLSHSGSAPDVPAVSVIVKNTSRQESFEAEKDHIAPSLLHNGFRGSDLPPDSHHCGKFDSTFINGDSARSFTSKLEPSKSEPLPTFNQFSPISSPEPEDPVKDNGFGIKSKHSDSYFPPPPGTVGGPVLEALSKFPVPELHMFDHFCKKEPKPEPLPLESQQEHEQGGQKVVEPHKDLDSSRFFGEALEFNSHPSNSIGEPKKLAPELSACSSVPPRQRLKPAHSKLSSCVAALVALQAKRVANVTKEDQPGHTKDSSGPTKEGSKGSPKMPKSPKSPRSPLEATRKSIKPSDSPRSICSDSSSKGSPSVAASSPPAIPKVRIKTIKTSSGEIKRTVTRILPDPDDPSKSPAESPAGSTITEAPSEAPGDEGTAMPVEEHFSEAGIHSGSPQGDRKGDENMIKTSDSSSPCRISGSRVPKGSALNSQASKKQQSTAPQASTPAASLLPKAVHLANLNLVPHSVAASVTAKSSAQRRSQPQVTQMTVPLVHQVKKAAPLIVEVFNKVLHSSNPVPLYAPNLSPPADSRIHVPASGYCCLECGDAFALEKSLSQHYSRRSVHIEVLCTLCSKTLLFFNKCSLLRHARDHKSKGLVMQCSQLLVKPISADQMFVAAPVNSTAPATPAASSSPKPSPTLDNASSVIPALPLYPDPVRLIRYGTKCPECHKQMRDYMVLATHFQRTTEETEGLTCQVCQMLLPNQCSFCAHQRIHAHKSPYCCPECGVLCRSAYFQTHVKENCLHYARKVGYRCIHCGVIHLTLALLKSHIQERHCQVFHKCAFCPMAFKTASSTMDHSTTQHPTQPHKPSQLIYKCSCEMVFNKKRHIQQHFYQNVSKTQAGVFKCPECPLLFLQKPELMQHVKNTHGVPRNVEELSSLQSSTDTSSNRPGSRAPAEPPATNVAARGSSLTAGRWGRPEAHRRAEARPRMRSTGWTCQECQEWVPDRESYVSHMKKSHGRTLKRYPCRQCEQSFHNPSSLRKHIRNNHDTVKKVYTCGYCTEDSPSFPRPSLLESHISLMHGIRNPDLSQTSKVRHPGGPSPQVNHLKRPVSRMADAPGTSNGATVSSTKRHKSLFQCAKCTFATDSELEFQSHIPQHQVDSSTAQCLLCGLCYTSTSSLNRHLFIVHKVRDQEEGGEDIVEVKVEAPDSEACSGEEVAMETKENGLEECASEPLVTDLGGQQGLALDEDSAQDPQNQPQASQDQNSHALSPQV

No constants are given. Whether binding was seen depends on the method and setting. Binding seen in cells or lysates may run through a third protein. These calls come from enrichment with a bait or labelling near it, and not all partners need be listed. Where a sequence is shown, tags or fusion partners need not be part of it.

The assay concerns the target T1, C-terminally 3xFlag-tagged Esrrb (oestrogen-related receptor beta) (mouse). As to the kind of experiment: affinity purification with mass spectrometry; anti-FLAG M2 agarose IP of Esrrb-3xFlag from TS cell nuclear extract dialysed to buffer D (20 mM Hepes pH 7.6, 20% glycerol, 100 mM KCl, 1.5 mM MgCl2, 0.2 mM EDTA), 3 h at 4 °C with Benzonase, elution with FLAG-tripeptide, LC-MS/MS; two biological replicates against vector control.
Consider B1, for which the binding entry is listed as “binds”.

Regarding B2, the binding entry is “binds”. As for B3, the binding result is “binds”. Take B4: the binding result is given as “binds”. Take B5: the binding entry is “binds”. B6: the binding result was “binds”.
